Measured values as given in patent US20250304621A1, “POLYPEPTIDE FOR SPECIFICALLY BLOCKING BINDING OF ACVR1C TO GREM1 AND USE THEREOF” (The Seventh Affiliated Hospital, Sun Yat-Sen University, priority 2024, published 2025).
No constants are given. Whether binding was seen depends on the method and setting. In cells and extracts the contact can be indirect. Some binding calls cover weakened binding; strength is not graded here. Tags and fused reporters may be left off the sequences shown.

Target: T1, his-tagged full-length GREM1 (Homo sapiens (Human)) (UniProt O60565)
T1 sequence: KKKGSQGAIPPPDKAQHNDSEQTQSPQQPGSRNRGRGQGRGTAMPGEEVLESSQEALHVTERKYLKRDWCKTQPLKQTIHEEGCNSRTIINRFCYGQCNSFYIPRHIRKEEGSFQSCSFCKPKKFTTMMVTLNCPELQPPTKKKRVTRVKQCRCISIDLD
Test: competition pull-down; the peptide competes with Fc-tagged ACVR1C-ECD for his-tagged GREM1 (FIG. 11b)

binding: binds
Binder: TECCFTDFCNNITLHLPTA [ACVR1C peptide]
